# Experimental data published in PubChem BioAssay AID288 (DTP/NCI, 2004).
# The list is a part of this screen's results and no random one: it gathers tests that were run many times, whatever their T/C, doses with no T/C, and many T/C values between a quarter and a half above the control. Further doses and runs are listed elsewhere. T/C gives the treated animals as a percentage of the vehicle group. Schedules are NCI's codes, read here as Q, the interval in days (D) or hours (H), X, the number of doses. Some T/C values are followed by the survivors on the day toxicity was checked, most often the fifth; without a count, all were alive then. Some entries give survivors of the animals treated and no T/C: the source holds a T/C of zero for them, seemingly a mark for toxic or unscored doses. Some doses without a T/C left all or most animals alive at the check, yet need not have been tolerated: survival well below the control is almost never listed, so the zero probably covers shortened survival too. Counts of survivors are from the toxicity check (mostly the fifth day) where no day follows; animals may have died later. For survival time, the PubChem record calls one and a half times the control and up active, and a quarter to a half above the control has no call in these data; cut-offs in other NCI protocols can differ. Some entries were tested several times; the values are given in rising order.
# System: BDF1 mice, M5076 sarcoma s.c., survival/tumor T/C
# Assay: NCI In Vivo Anticancer Drug Screen. Data for tumor model Sarcoma M5076 (subcutaneous) in B6D2F1 (BDF1) mice
# Method: The antitumor activity of compounds was measured in mice bearing transplantable tumors. Survival or tumor size were measured and the results are expressed as the measurement made in the treated group (T) divided by the measurement made in the vehicle treated control group (C). The tumor model used in this assay is Sarcoma M5076 (subcutaneous) in B6D2F1 (BDF1) mice
structure (smiles),measurement,setting,value
O=[N+]([O-])c1nccn1CC(O)CO (configuration not stated),T/C,"T/C endpoint: median survival time, dose: 1000.0 mg/kg/injection, schedule: Q01DX001 (ip), vehicle: saline, evaluated on day 16, higher T/C = longer survival",96 and 109 % of control
same,T/C,"T/C endpoint: median survival time, dose: 1000.0 mg/kg/injection, schedule: Q01DX001 (ip), vehicle: saline, evaluated on day 43, higher T/C = longer survival",96 % of control
same,T/C,"T/C endpoint: median survival time, dose: 1000.0 mg/kg/injection, schedule: Q01DX001 (ip), vehicle: saline, evaluated on day 49, higher T/C = longer survival",76 % of control
same,T/C,"T/C endpoint: median survival time, dose: 1000.0 mg/kg/injection, schedule: Q01DX001 (ip), vehicle: saline, evaluated on day 50, higher T/C = longer survival",111 % of control
N[C@H](C(=O)O)[C@@H]1CC(Cl)=NO1,T/C,"T/C endpoint: median survival time, dose: 1.0 mg/kg/injection, schedule: Q01DX010 (ip), vehicle: saline, higher T/C = longer survival",126 and 132 % of control
same,T/C,"T/C endpoint: median survival time, dose: 2.0 mg/kg/injection, schedule: Q01DX010 (ip), vehicle: saline, higher T/C = longer survival",142 % of control
same,T/C,"T/C endpoint: median survival time, dose: 4.0 mg/kg/injection, schedule: Q01DX010 (ip), vehicle: saline, higher T/C = longer survival",144 % of control
same,survivor count,"T/C endpoint: median survival time, dose: 8.0 mg/kg/injection, schedule: Q01DX010 (ip), vehicle: saline, higher T/C = longer survival",10 of 10
same,T/C,"T/C endpoint: median survival time, dose: 8.0 mg/kg/injection, schedule: Q04DX005 (ip), vehicle: saline, evaluated on day 18, higher T/C = longer survival",138 % of control
same,T/C,"T/C endpoint: median survival time, dose: 8.0 mg/kg/injection, schedule: Q04DX005 (ip), vehicle: saline, evaluated on day 55, higher T/C = longer survival",136 % of control
same,survivor count,"T/C endpoint: median survival time, dose: 16.0 mg/kg/injection, schedule: Q01DX010 (ip), vehicle: saline, higher T/C = longer survival",10 of 10
same,T/C,"T/C endpoint: median survival time, dose: 16.0 mg/kg/injection, schedule: Q04DX005 (ip), vehicle: saline, evaluated on day 18, higher T/C = longer survival",143 % of control
same,T/C,"T/C endpoint: median survival time, dose: 16.0 mg/kg/injection, schedule: Q04DX005 (ip), vehicle: saline, evaluated on day 55, higher T/C = longer survival",141 % of control
O=C1NC2(CCCCC2)C(=O)N1CCN(CCCl)CCCl,T/C,"T/C endpoint: median survival time, dose: 16.0 mg/kg/injection, schedule: Q01DX009 (ip), vehicle: saline with Tween-80, higher T/C = longer survival",133 % of control
same,survivor count,"T/C endpoint: median survival time, dose: 32.0 mg/kg/injection, schedule: Q01DX009 (ip), vehicle: saline with Tween-80, higher T/C = longer survival",2 of 10 on day 9
same,survivor count,"T/C endpoint: median survival time, dose: 64.0 mg/kg/injection, schedule: Q01DX009 (ip), vehicle: saline with Tween-80, higher T/C = longer survival",0 of 10 on day 9
same,survivor count,"T/C endpoint: median survival time, dose: 128.0 mg/kg/injection, schedule: Q01DX009 (ip), vehicle: saline with Tween-80, higher T/C = longer survival",0 of 10 on day 9
same,survivor count,"T/C endpoint: median tumor weight (est.), dose: 32.0 mg/kg/injection, schedule: Q01DX009 (ip), vehicle: saline with Tween-80, higher T/C = larger tumour",0 of 10 on day 20
same,survivor count,"T/C endpoint: median tumor weight (est.), dose: 64.0 mg/kg/injection, schedule: Q01DX009 (ip), vehicle: saline with Tween-80, higher T/C = larger tumour",0 of 10 on day 20
same,survivor count,"T/C endpoint: median tumor weight (est.), dose: 128.0 mg/kg/injection, schedule: Q01DX009 (ip), vehicle: saline with Tween-80, higher T/C = larger tumour",0 of 10 on day 20
Nc1ccc(N2N=C(N3CCCC3)CC2=O)cc1,T/C,"T/C endpoint: median tumor weight (est.), dose: 100.0 mg/kg/injection, schedule: Q01DX009 (ip), vehicle: saline with Tween-80, evaluated on day 20, higher T/C = larger tumour",127 % of control
O=C1C2CC(Cl)C(SSC3CC4C(=O)N(SC(Cl)(Cl)C(Cl)Cl)C(=O)C4CC3Cl)CC2C(=O)N1SC(Cl)(Cl)C(Cl)Cl (configuration not stated),survivor count,"T/C endpoint: median survival time, dose: 12.5 mg/kg/injection, schedule: Q01DX009 (ip), vehicle: saline with Tween-80, higher T/C = longer survival",9 of 10 on day 9
same,survivor count,"T/C endpoint: median survival time, dose: 25.0 mg/kg/injection, schedule: Q01DX009 (ip), vehicle: saline with Tween-80, higher T/C = longer survival",8 of 10 on day 9
same,survivor count,"T/C endpoint: median survival time, dose: 50.0 mg/kg/injection, schedule: Q01DX009 (ip), vehicle: saline with Tween-80, higher T/C = longer survival",0 of 10 on day 9
c1cc2n(n1)CCN2,T/C,"T/C endpoint: median tumor weight (est.), dose: 12.5 mg/kg/injection, schedule: Q02DX011 (ip), vehicle: saline, evaluated on day 22, higher T/C = larger tumour",148 % of control [9 of 10 alive on day 22]
same,T/C,"T/C endpoint: median tumor weight (est.), dose: 25.0 mg/kg/injection, schedule: Q02DX011 (ip), vehicle: saline, evaluated on day 22, higher T/C = larger tumour",137 % of control [9 of 10 alive on day 22]
COC(=O)C[C@](O)(CCCC(C)(C)O)C(=O)O[C@@H]1C(OC)=C[C@]23CCCN2CCc2cc4c(cc2[C@H]13)OCO4,T/C,"T/C endpoint: mean tumor weight, dose: 1.0 mg/kg/injection, schedule: Q02DX011 (ip), vehicle: saline, evaluated on day 22, higher T/C = larger tumour",130 % of control
same,T/C,"T/C endpoint: median tumor weight (est.), dose: 1.0 mg/kg/injection, schedule: Q02DX011 (ip), vehicle: saline, evaluated on day 22, higher T/C = larger tumour",129 % of control
C[CH2][Ge]1([CH2]C)[CH2]CC2(CCN(CCCN(C)C)C2)C[CH2]1,survivor count,"T/C endpoint: mean tumor weight, dose: 100.0 mg/kg/injection, schedule: Q02DX011 (ip), vehicle: saline, higher T/C = larger tumour",2 of 9 on day 22
CC(C)CC(NC(=O)C(N)C(C)C)C(=O)NC(CCCCN)C(=O)NC(C(=O)O)C1CC(Cl)=NO1 (configuration not stated),T/C,"T/C endpoint: median survival time, dose: 12.8 mg/kg/injection, schedule: Q01DX010 (ip), vehicle: saline, higher T/C = longer survival",125 and 148 % of control
same,T/C,"T/C endpoint: median survival time, dose: 25.6 mg/kg/injection, schedule: Q01DX010 (ip), vehicle: saline, higher T/C = longer survival",144 % of control
same,survivor count,"T/C endpoint: median survival time, dose: 51.2 mg/kg/injection, schedule: Q01DX010 (ip), vehicle: saline, higher T/C = longer survival",10 of 10
